According to patent US9353092B2, “Synthesis and use of croconaine compounds” (University of Notre Dame du Lac, priority 2013, dated 2016):

Assay: Singlet oxygen trapping experiment with DPBF
Type: physicochemical
Settings: 5.0 μM dye, DPBF 100 μM, 99:1 MeOH/CHCl3, Xenon lamp >620 nm, 0-3 minutes
Method: Shown in FIGS. 16 and 17 are singlet oxygen trapping experiments that use the chemical trap DPBF to react with any singlet oxygen that is produced. Thus, the presence of singlet oxygen is detected by a decrease in the DPBF absorbance band at 400 nm. Experiments monitored the change in the absorption spectra of a solution of croconaine 1 (5.0 μM) and DPBF (100 μM) in 99:1 MeOH/CHCl3 with Xenon lamp irradiation (>620 nm) after 0, 1, 2 and 3 minutes.

Row | Structure (SMILES) | Photogeneration of singlet oxygen (DPBF absorbance band at 400 nm)
1 | CC1(C)C(/C=C/C=C/C=C/C=C2\N(CCCCS(=O)(=O)O)c3ccc4ccccc4c3C2(C)C)=[N+](CCCCS(=O)(=O)[O-])c2ccc3ccccc3c21 [ICG, indocyanine green] | rapid loss of the DPBF absorbance band at 400 nm
2 | C#CCOCCN(CC)c1ccc(C2=C([O-])/C(=C3C=C/C(=[N+](/CC)CCOCC#C)S\3)C(=O)C2=O)s1 [Compound 1] | no singlet oxygen is produced
